Results on two molecules are retold here after PMC7401805, “Tissue specific requirement of Drosophila Rcd4 for centriole duplication and ciliogenesis” (The Journal of Cell Biology, 2020).

Protein sequences, listed by entry. Tags and fused reporters are not part of them.
UniProt A1Z8X3: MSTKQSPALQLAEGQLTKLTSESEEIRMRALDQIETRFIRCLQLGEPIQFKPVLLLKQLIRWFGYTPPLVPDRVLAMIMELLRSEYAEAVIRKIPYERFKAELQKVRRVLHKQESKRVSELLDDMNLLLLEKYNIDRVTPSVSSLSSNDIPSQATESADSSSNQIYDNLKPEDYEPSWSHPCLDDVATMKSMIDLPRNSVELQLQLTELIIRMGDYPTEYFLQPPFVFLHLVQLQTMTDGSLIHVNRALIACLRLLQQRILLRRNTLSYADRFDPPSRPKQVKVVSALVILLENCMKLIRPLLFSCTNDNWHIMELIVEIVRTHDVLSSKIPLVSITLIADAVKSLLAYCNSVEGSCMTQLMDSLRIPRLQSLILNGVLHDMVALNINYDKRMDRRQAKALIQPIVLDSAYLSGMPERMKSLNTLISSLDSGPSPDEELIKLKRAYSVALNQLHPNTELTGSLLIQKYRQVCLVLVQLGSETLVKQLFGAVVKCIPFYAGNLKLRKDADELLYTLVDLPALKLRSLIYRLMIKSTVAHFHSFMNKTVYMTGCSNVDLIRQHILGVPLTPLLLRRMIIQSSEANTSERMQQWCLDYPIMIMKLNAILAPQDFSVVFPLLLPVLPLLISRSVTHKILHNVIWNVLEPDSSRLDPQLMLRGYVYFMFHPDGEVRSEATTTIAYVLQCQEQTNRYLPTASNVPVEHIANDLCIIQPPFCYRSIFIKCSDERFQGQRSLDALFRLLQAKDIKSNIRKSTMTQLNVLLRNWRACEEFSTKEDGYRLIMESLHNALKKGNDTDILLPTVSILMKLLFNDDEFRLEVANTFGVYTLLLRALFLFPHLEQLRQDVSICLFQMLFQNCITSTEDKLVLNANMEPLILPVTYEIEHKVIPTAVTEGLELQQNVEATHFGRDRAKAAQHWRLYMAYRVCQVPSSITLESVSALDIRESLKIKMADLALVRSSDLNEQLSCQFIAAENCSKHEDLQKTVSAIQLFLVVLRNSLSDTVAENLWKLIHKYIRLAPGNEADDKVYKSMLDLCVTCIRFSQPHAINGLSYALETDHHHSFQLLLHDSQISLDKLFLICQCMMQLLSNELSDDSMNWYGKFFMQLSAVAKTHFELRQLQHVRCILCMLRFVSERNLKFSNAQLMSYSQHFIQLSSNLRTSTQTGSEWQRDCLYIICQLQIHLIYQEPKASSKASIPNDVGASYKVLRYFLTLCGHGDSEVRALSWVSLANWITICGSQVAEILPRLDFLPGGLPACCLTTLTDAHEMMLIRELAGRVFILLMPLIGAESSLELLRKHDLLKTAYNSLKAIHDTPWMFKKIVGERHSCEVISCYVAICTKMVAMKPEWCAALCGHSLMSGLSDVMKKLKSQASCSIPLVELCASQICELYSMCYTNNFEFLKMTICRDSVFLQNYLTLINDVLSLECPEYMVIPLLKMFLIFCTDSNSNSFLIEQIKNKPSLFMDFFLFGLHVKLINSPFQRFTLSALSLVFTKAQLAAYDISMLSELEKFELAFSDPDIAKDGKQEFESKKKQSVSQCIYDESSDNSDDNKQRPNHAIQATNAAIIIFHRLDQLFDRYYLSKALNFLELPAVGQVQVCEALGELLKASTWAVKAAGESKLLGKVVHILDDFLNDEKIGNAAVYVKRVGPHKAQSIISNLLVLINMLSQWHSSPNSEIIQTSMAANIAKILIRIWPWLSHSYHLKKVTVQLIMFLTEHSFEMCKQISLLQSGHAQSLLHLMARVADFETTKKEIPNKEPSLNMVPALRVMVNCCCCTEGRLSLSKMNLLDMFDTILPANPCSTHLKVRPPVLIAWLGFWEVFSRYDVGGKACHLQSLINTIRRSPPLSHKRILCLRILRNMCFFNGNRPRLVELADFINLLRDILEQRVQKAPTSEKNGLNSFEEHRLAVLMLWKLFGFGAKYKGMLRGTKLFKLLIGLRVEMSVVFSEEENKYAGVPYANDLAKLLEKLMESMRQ

These are yes or no findings as the source states them, for the method shown. Binding seen in cells or lysates may run through a third protein. A yes stands for co-enrichment or nearness to the bait. Other partners may have been found. For some assays here: Where a sequence is shown, tags or fusion partners need not be part of it.

In assay [1] the target is T1, GFP-tagged Rcd4 (pAct5C-Rcd4-GFP) (Drosophila melanogaster) (UniProt Q9VLM6).
T1 sequence: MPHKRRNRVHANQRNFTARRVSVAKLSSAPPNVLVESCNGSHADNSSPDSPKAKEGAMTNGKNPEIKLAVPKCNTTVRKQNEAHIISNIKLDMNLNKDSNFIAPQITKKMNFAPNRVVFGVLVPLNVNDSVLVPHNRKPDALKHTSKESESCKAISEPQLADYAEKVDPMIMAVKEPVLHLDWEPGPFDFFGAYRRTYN
Kind of assay: affinity purification with mass spectrometry; GFP-Trap magnetic agarose beads on lysate of D.Mel-2 cells stably expressing the GFP-tagged bait; extraction buffer 75 mM Na-Hepes pH 7.5, 150 mM NaCl, 2 mM MgCl2, 2 mM EGTA, 0.1% NP-40; with or without okadaic acid; Orbitrap-LTQ, Mascot.

In assay [2] the target is GFP-tagged Ana3 (pAct5C-GFP-Ana3) (Drosophila melanogaster) (UniProt A1Z8X3). The description is as above.

With “Ana3 (endogenous, D.Mel-2 cells) (from UniProt A1Z8X3 1-1977)”, in assay [1], the binding result was “binds”.

B1: Rcd4 (endogenous, D.Mel-2 cells) (protein, UniProt Q9VLM6 1-199)
chain: T1 sequence
On to B1, for which the binding result in assay [2] is recorded as “binds”.
